Experimental data reported in PubChem BioAssay AID248 (DTP/NCI, 2004).
The list is a part of this screen's results and no random one: it is rich in T/C values a quarter to a half above the control, in often repeated tests (any T/C) and in doses without a T/C. Further doses and runs are listed elsewhere. T/C gives the treated animals as a percentage of the vehicle group. Some entries give survivors of the animals treated and no T/C: the source holds a T/C of zero for them, seemingly a mark for toxic or unscored doses. Some survivor counts are full or nearly so, which does not show that the dose was tolerated: the source hardly ever lists a survival T/C far under the control, and the zero likely stands for such cases as well. Survivors were counted at the toxicity check, usually on the fifth day, unless a day is given; later deaths do not show. Schedules are NCI's codes, taken here to give the interval after Q, in days (D) or hours (H), and the number of doses after X. Some entries were tested several times; the values are given in rising order. Where survival is the endpoint, the PubChem record calls one and a half times the control and up active, and a quarter to a half above the control has no call in these data; cut-offs in other NCI protocols can differ. Some T/C values are followed by the survivors on the day toxicity was checked, most often the fifth; without a count, all were alive then.

Tested on: L1210 leukemia ip in BDF1 mice, survival T/C
Test: NCI In Vivo Anticancer Drug Screen. Data for tumor model L1210 Leukemia (intraperitoneal) in B6D2F1 (BDF1) mice
Conditions: T/C endpoint: mean survival time, higher T/C = longer survival
[1] = dose: 40.0 mg/kg/injection, schedule: Q01DX001 (ip), vehicle: saline
[2] = dose: 80.0 mg/kg/injection, schedule: Q01DX001 (ip), vehicle: saline
[3] = dose: 100.0 mg/kg/injection, schedule: Q01DX001 (ip), vehicle: saline
[4] = dose: 200.0 mg/kg/injection, schedule: Q01DX001 (ip), vehicle: saline
[5] = dose: 400.0 mg/kg/injection, schedule: Q01DX001 (ip), vehicle: saline
[6] = dose: 100.0 mg/kg/injection, schedule: Q04DX003 (ip), vehicle: saline
[7] = dose: 200.0 mg/kg/injection, schedule: Q04DX003 (ip), vehicle: saline
[8] = dose: 400.0 mg/kg/injection, schedule: Q04DX003 (ip), vehicle: saline
[9] = dose: 400.0 mg/kg/injection, schedule: Q01DX009 (ip), vehicle: Klucel (hydroxypropylcellulose) (HPC)

Compound: N#CSCCOCCSC#N
- survivor count (dose: 20.0 mg/kg/injection, schedule: Q01DX001 (ip), vehicle: saline): 0 of 4
- survivor count [1]: 0 of 4
- survivor count [2]: 0 of 4
- survivor count [3]: 0 of 4
- survivor count [4]: 0 of 4
- survivor count [5]: 0 of 4

Compound: COC(=O)C(CCCCN=Cc1ccccc1O)N=Cc1ccccc1O.[Ni] (stereo unspecified)
- survivor count (dose: 400.0 mg/kg/injection, schedule: Q04DX003 (ip), vehicle: saline with Tween-80): 0 of 6

Compound: O=C(C=C(C(F)(F)F)C(F)(F)F)c1ccc(Br)cc1
- survivor count (dose: 100.0 mg/kg/injection, schedule: Q04DX003 (ip), vehicle: other): 1 of 6

Compound: CNC(=S)N/N=C(/C)CCc1c(C)nn(C(=S)NC)c1C
- survivor count (dose: 100.0 mg/kg/injection, schedule: Q01DX001 (ip), vehicle: carboxymethylcellulose (CMC)): 0 of 4
- survivor count (dose: 200.0 mg/kg/injection, schedule: Q01DX001 (ip), vehicle: carboxymethylcellulose (CMC)): 0 of 4
- survivor count (dose: 400.0 mg/kg/injection, schedule: Q01DX001 (ip), vehicle: carboxymethylcellulose (CMC)): 0 of 4

Compound: COc1cc(NS(C)(=O)=O)ccc1Nc1c2ccc([N+](=O)[O-])cc2nc2c(C)c(C)ccc12
- T/C (dose: 0.72 mg/kg/injection, schedule: Q01DX009 (ip), vehicle: saline): 125 % of control
- T/C (dose: 6.25 mg/kg/injection, schedule: Q01DX009 (ip), vehicle: saline): 148 % of control
- T/C (dose: 50.0 mg/kg/injection, schedule: Q01DX001 (ip), vehicle: water): 127 % of control
- survivor count (dose: 50.0 mg/kg/injection, schedule: Q01DX009 (ip), vehicle: saline): 6 of 6
- T/C (dose: 50.0 mg/kg/injection, schedule: Q01DX009 (ip), vehicle: water): 129 % of control
- T/C (dose: 100.0 mg/kg/injection, schedule: Q01DX001 (ip), vehicle: water): 128 % of control
- survivor count (dose: 100.0 mg/kg/injection, schedule: Q01DX009 (ip), vehicle: saline): 5 of 6
- T/C (dose: 100.0 mg/kg/injection, schedule: Q01DX009 (ip), vehicle: water): 135 % of control
- T/C (dose: 200.0 mg/kg/injection, schedule: Q01DX001 (ip), vehicle: water): 133 % of control
- survivor count (dose: 200.0 mg/kg/injection, schedule: Q01DX009 (ip), vehicle: saline): 5 of 6
- T/C (dose: 200.0 mg/kg/injection, schedule: Q01DX009 (ip), vehicle: water): 141 % of control
- T/C (dose: 400.0 mg/kg/injection, schedule: Q01DX001 (ip), vehicle: water): 135 % of control
- survivor count (dose: 400.0 mg/kg/injection, schedule: Q01DX009 (ip), vehicle: saline): 0 of 6

Compound: Cc1ccc(NCC(O)CN2CCCCC2)cc1 (stereo unspecified)
- survivor count (dose: 75.0 mg/kg/injection, schedule: Q01DX009 (ip), vehicle: saline): 0 of 6
- survivor count (dose: 150.0 mg/kg/injection, schedule: Q01DX009 (ip), vehicle: saline): 0 of 6
- survivor count (dose: 300.0 mg/kg/injection, schedule: Q01DX009 (ip), vehicle: saline): 0 of 6

Compound: S=C1NC(c2ccccc2)NC(c2ccccc2)S1 (stereo unspecified)
- survivor count [6]: 6 of 6
- survivor count [7]: 6 of 6
- survivor count [8]: 6 of 6

Compound: COC(=O)C(C)(N)Cc1ccc(O)cc1 (stereo unspecified)
- survivor count [8]: 2 of 6

Compound: COC(=N)c1ccc(O)cc1
- survivor count (dose: 400.0 mg/kg/injection, schedule: Q04DX002 (ip), vehicle: saline with Tween-80): 2 of 3

Compound: O=NN(CCCl)C(=O)C1CCC(C(=O)N(CCCl)N=O)CC1 (stereo unspecified)
- T/C (dose: 1.0 mg/kg/injection, schedule: Q01DX001 (ip), vehicle: carboxymethylcellulose (CMC)): 125 % of control
- T/C (dose: 2.0 mg/kg/injection, schedule: Q01DX001 (ip), vehicle: carboxymethylcellulose (CMC)): 138 % of control
- T/C (dose: 4.0 mg/kg/injection, schedule: Q01DX001 (ip), vehicle: carboxymethylcellulose (CMC)): 146 % of control
- T/C (dose: 5.0 mg/kg/injection, schedule: Q01DX001 (ip), vehicle: carboxymethylcellulose (CMC)): 128 % of control
- T/C (dose: 46.0 mg/kg/injection, schedule: Q01DX001 (ip), vehicle: carboxymethylcellulose (CMC)): 131 % of control [4 of 6 alive]
- survivor count (dose: 93.0 mg/kg/injection, schedule: Q01DX001 (ip), vehicle: carboxymethylcellulose (CMC)): 5 of 6
- survivor count (dose: 125.0 mg/kg/injection, schedule: Q01DX001 (ip), vehicle: carboxymethylcellulose (CMC)): 5 of 6
- survivor count (dose: 187.0 mg/kg/injection, schedule: Q01DX001 (ip), vehicle: carboxymethylcellulose (CMC)): 3 of 6
- survivor count (dose: 250.0 mg/kg/injection, schedule: Q01DX001 (ip), vehicle: carboxymethylcellulose (CMC)): 2 of 6
- survivor count (dose: 375.0 mg/kg/injection, schedule: Q01DX001 (ip), vehicle: carboxymethylcellulose (CMC)): 0 of 6
- survivor count (dose: 500.0 mg/kg/injection, schedule: Q01DX001 (ip), vehicle: carboxymethylcellulose (CMC)): 0 of 6

Compound: COc1cc(OC)c(OC)cc1/C=C/c1cc[n+](C)c2ccccc12
- survivor count (dose: 200.0 mg/kg/injection, schedule: Q04DX002 (ip), vehicle: Klucel (hydroxypropylcellulose) (HPC)): 1 of 3
- survivor count (dose: 400.0 mg/kg/injection, schedule: Q04DX002 (ip), vehicle: Klucel (hydroxypropylcellulose) (HPC)): 0 of 3

Compound: CCC1CC2CN3CCc4c([nH]c5ccccc45)C(C(=O)OC)(C2)C13 (stereo unspecified)
- survivor count (dose: 300.0 mg/kg/injection, schedule: Q01DX001 (ip), vehicle: other): 0 of 6

Compound: CC(=O)NNS(=O)(=O)c1ccccc1
- survivor count [9]: 0 of 6

Compound: CCOC(=O)CNC(=O)OCCSc1ccc(C)cc1
- survivor count (dose: 400.0 mg/kg/injection, schedule: Q01DX009 (ip), vehicle: saline with Tween-80): 1 of 6

Compound: CCNCCCCCCNCC
- survivor count [6]: 5 of 6
- survivor count [7]: 0 of 6
- survivor count [8]: 0 of 6

Compound: Cc1cn(O)c2nc(N)nc(=O)c-2n1
- survivor count (dose: 200.0 mg/kg/injection, schedule: Q01DX001 (ip), vehicle: Klucel (hydroxypropylcellulose) (HPC)): 1 of 3
- survivor count (dose: 400.0 mg/kg/injection, schedule: Q01DX001 (ip), vehicle: Klucel (hydroxypropylcellulose) (HPC)): 1 of 3

Compound: Cn1nc(C(N)=O)c2c(N)ncnc21
- survivor count (dose: 60.0 mg/kg/injection, schedule: Q01DX001 (ip), vehicle: carboxymethylcellulose (CMC)): 3 of 6

Compound: O=S1(=O)C2CCC(C2)C1Cl (stereo unspecified)
- survivor count (dose: 100.0 mg/kg/injection, schedule: Q01DX009 (ip), vehicle: saline with Tween-80): 2 of 6

Compound: O=C1C=C(c2c(-c3ccccc3)[nH]c3ccccc23)C(=O)c2ccccc21
- survivor count (dose: 400.0 mg/kg/injection, schedule: Q01DX001 (ip), vehicle: other): 2 of 4

Compound: [Cl][Hg][S]C1CCCC1
- survivor count [1]: 2 of 6
- survivor count [2]: 0 of 6
- survivor count [3]: 0 of 6
- survivor count [4]: 0 of 6
- survivor count [5]: 0 of 6

Compound: CN(C)c1nc2c(N)ncnc2n1C1OC(CO)C(O)C1O (stereo unspecified)
- survivor count (dose: 50.0 mg/kg/injection, schedule: Q01DX005 (ip), vehicle: saline): 3 of 6
- survivor count (dose: 100.0 mg/kg/injection, schedule: Q01DX005 (ip), vehicle: saline): 0 of 6 and 1 of 6
- survivor count (dose: 200.0 mg/kg/injection, schedule: Q01DX005 (ip), vehicle: saline): 0 of 6

Compound: C=CC[As](=O)(O)O
- survivor count [6]: 1 of 6
- survivor count [7]: 1 of 6
- survivor count [8]: 0 of 6

Compound: COc1ccc(C(=O)Nc2cccc3ccccc23)cc1
- survivor count (dose: 100.0 mg/kg/injection, schedule: Q01DX009 (ip), vehicle: carboxymethylcellulose (CMC)): 3 of 3

Compound: CCCCC(CCCCCC(CCCC)NCc1ccc2c(c1)OCO2)NCc1ccc2c(c1)OCO2 (stereo unspecified)
- survivor count (dose: 100.0 mg/kg/injection, schedule: Q01DX009 (ip), vehicle: Klucel (hydroxypropylcellulose) (HPC)): 0 of 6
- survivor count (dose: 200.0 mg/kg/injection, schedule: Q01DX009 (ip), vehicle: Klucel (hydroxypropylcellulose) (HPC)): 0 of 6
- survivor count [9]: 0 of 6
